The record followed here is PMC3334623.

Results are given in words; binding and its absence hold for the method and conditions named. Binding seen in cells or lysates may run through a third protein. These calls come from enrichment with a bait or labelling near it, and not all partners need be listed. Sequences can lack the tags named with a protein.

The target in the test is T1, Sin3a-3xFLAG (mouse) (UniProt Q60520).
T1 sequence: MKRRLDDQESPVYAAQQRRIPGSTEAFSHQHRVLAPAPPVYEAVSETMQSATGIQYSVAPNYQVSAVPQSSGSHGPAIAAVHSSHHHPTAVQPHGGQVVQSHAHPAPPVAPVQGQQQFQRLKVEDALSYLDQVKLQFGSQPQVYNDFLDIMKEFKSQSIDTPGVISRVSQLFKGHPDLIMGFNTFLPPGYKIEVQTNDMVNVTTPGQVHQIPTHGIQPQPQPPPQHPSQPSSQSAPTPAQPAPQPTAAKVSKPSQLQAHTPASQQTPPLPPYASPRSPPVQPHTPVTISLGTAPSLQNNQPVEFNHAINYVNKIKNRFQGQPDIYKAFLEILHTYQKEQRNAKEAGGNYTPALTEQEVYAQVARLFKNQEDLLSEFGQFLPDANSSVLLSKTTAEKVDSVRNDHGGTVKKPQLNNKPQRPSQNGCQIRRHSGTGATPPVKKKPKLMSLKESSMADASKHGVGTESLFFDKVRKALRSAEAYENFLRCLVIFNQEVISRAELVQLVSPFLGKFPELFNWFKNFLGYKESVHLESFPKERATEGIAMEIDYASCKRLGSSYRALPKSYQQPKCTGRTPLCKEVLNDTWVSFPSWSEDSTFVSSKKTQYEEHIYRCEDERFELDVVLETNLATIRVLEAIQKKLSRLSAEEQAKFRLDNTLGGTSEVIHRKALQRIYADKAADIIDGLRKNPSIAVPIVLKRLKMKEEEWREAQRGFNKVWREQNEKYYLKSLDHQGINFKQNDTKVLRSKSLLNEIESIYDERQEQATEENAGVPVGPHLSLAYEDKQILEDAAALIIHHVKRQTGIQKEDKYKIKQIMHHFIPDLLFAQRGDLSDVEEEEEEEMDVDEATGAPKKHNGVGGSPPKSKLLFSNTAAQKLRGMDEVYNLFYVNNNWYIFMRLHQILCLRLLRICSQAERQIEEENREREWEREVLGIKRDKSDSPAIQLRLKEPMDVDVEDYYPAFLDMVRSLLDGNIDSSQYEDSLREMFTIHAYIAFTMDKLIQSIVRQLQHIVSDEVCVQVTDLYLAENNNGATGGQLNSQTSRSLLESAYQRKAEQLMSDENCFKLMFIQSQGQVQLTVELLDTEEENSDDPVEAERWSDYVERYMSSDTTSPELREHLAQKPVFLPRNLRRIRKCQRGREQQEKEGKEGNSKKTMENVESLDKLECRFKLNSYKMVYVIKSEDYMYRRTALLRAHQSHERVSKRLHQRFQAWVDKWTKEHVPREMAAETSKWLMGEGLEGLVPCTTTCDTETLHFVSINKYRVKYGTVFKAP
As to the kind of experiment: affinity purification with mass spectrometry; anti-FLAG M2 resin, 4 h at 4 °C, with 13-15 mg nuclear extract of E14tg2a ES cells expressing Sin3a-3xFLAG or 3xFLAG alone; IP buffer 25 mM HEPES-KOH pH 7.6, 140 mM KCl, 10% glycerol, 0.1% Igepal CA-630; washes with 250 mM KCl; elution with 3x FLAG peptide; SDS-PAGE and LC-MS/MS; four independent pull downs.

B1: GATA-like protein 1 (protein, UniProt Q1WG82 1-266)
chain: MEAAQAGDLTRRQELLAPPCLDTESLRKSRPPALEPGALRCLTPNIRSLWPTCQDSVSTALPFLQEKEKGLPGSPSPATQVLGSCWELMVIGMSDHLSMARNPRGTQCPNLEISSATSPASLQRRPRKQLNPRMGIEKVDPRFKGVTLEFQIQPDSSLQIVPTYSLPGRSCSQKLPASPSKALASPGSSEALGPRRCASCRTQRTPLWRDAEDGTPLCNACGIRYKKYGTRCSSCWLVPRKSIQPKRLCGRCGMSQDPHLSPTQEL
Regarding B1, the binding entry is reported as “binds”.

B2: Arid4a (protein, UniProt F8VPQ2 1-1261)
chain: MKAADEPAYLTVGTDVSAKYRGAFCEAKIKTVKRLVKVKVLLKQDNTTQLVQDDQVKGPLRVGAIVETRTSDGSIQEAIISKLTDASWYTVVFDDGDERTLRRTSLCLKGERHFAESETLDQLPLTNPEHFGTPVIAKKTNRGRRSSLPITEDEKEEESSEEEDEDKRRLNDELLGKVVSVASTAESTGWYPALVVSPSCNDDVTVKKDQCLVRSFIDSKFYSIARKDIKELDILTLPESELCARPGLRRASVFLKGRIVPDNWKMDISEILESSSSDDEECPAEEHEEEKEKEAKKEEEELPEEELDPEERDNFLQQLYKFMEDRGTPINKPPVLGYKDLNLFKLFRLVYHQGGCGNIDSGAVWKQIYMDLGIPILNSAASYNVKTAYRKYLYGFEEYCRSANIQFRTIHHHEPKVKEEKKDFEDSMDEALKEAPEMPLLDVKSEPEENTDSNSESDREDTELKSPRGRRKIVRDANCIKKEIEEEKIEDKFLRDDLENKDAGDDDDDGDPAAKREHELLFGRKSTPKNKEKKIKKPEDSERDSDEEEEKSQEREETESRCDSEGEDEEDDTEPCLTGTKVKVKYGRGKTQKIYEASIKSTEMDDGEILYLVHYYGWNVRYDEWVKADRIIWPLDKGGPKKKQKKKVKNKEDSEKDEKRDEERQKSKRGRPPLKSTFSPNMPYSLSKTSNSEGKSDSCSSDSEADDQLEKSSGGEDLSPDVKEELEKNENAHDDKLDEENPKIVHISKENDRTQAQPSDTLTVEAGDSDQIVHIFGDKVDQVEEFKKQVEKSPKGKGRRSKTKDLSLELIKISPFGQEEAGSEAHGDVHSLEFSSLECKNFSSTEDDIDPYEKEKKLKRKILGQQSPEKKLRLDNGMEMTTGVSQERSDDGAGAEGMKGAHVEQHFETEGEGMPSLTAEPDQGLQELTSEKSDSPAEEEPVHTPLKEEEDAMPLIGPETLVCHEVDLDDLDEKDKTSIEDVVVEGSESNSLASVPPALPPVAQHNFSVASPLTLSQDESRSIKSESDITIEVDSIAEESQEGLCERESANGFEASVASGACSIIAHERESREKGQKRPSDGNSGLIAKKQKRTPKRTSAAAKTEKNGAGQSSDSEDLPAMDSSSNCTPVKRLTLPKSQKLPRSPARTSPHIKDAEKEKHREKHPNSSPRTYKWSFQLNELDNMNSTERISFLQEKLQEIRKYYMSLKSEVATIDRRRKRLKKKDREVSHAGASMSSASSDTGMSPSSSSPPQNVLAVECR
For B2, the binding result was “binds”.

B3: Mnt (protein, UniProt O08789 1-591)
chain: MSIETLLEAARFLEWQAQQQQRAREEQERLRLEREREREQEQKRASNLARLAHALPVEEPRIEAPPLPLSPPAPPPAPPPPLATPAPLTVIPIPVVTNSPQSLPPPPPLPPAAQPLPLAPRQPALVSTPGLSIKEPVTLPTRPQVPTPAPLLPDAKTTVAPTGSPKPLQPLPAPILTIAPHPGVQPQLAPQQPPPPTLGTLKLAPAEEAKSSEQKKRPGGIGTREVHNKLEKNRRAHLKECFETLKRNIPNVDDKKTSNLSVLRTALRYIQSLKRKEKEYEHEMERLAREKIATQQRLAELKHELSQWMDVLEIDRVLRQTGQPEDDQASTSTASEGEDNVDEEMEGDRAGLGPPKLNHRPQPELLKSALPTPSTAPAPLPTHPHPHPHPVALSPAHLPVQQQQPPQQKTPLPAPPPPPATPTQTLVPAPAHLVATAGGGSTVIAHTATTHASVIQTVNHVLQGPGGKHIAHIAPSAPSPAVQLAPATPPIGHITVHPATLNHVAHLGSQLPLYPQPVAVSQPVAVSHIAHTLSHQQVNGTAGLGPPATVMAKPAVGAQVVHHPQLVGQTVLNPVTMVTMPSFPVSTLKLA
In the case of B3, the binding entry is given as “binds”.

B4: Hbp1 (protein, UniProt Q8R316 1-516)
chain: MVWEVKTNQMPNAVQKLLLVMDKRAPGMSDSLELLQCNENLPSSPGYNSCDEHMELDDLPELQAVQSDPTQSAIYQLSSDVSHQEYPRSSWSQNTSDIPENTHREDEVDWLTELANIATSPQSPLMQCSFYNRSSPVHIIATSKSLHSYARPPPVSSSSKSGPAFPHDHWKEETPVRHERANSESESGIFCMSSLSDDDDLGWCNSWPSTIWHCFLKGTRLCFHKESNKEWQDVEDFARAASCDNEEEIQMGTHKGYGSDGLKLLSHEESVSFGESVLKLTFDPGTVEDGLLTVECKLDHPFYVKNKGWSSFYPSLTVVQHGIPCCEIHIGDVCLPPGHPDAINFDDSGVFDTFKSYDFTPMDSSAVYVLSSMARQRRASLSCGGGPGTGQEFSGSEFSKSCGSPGSSQLSSSSLYAKAVKSHSSGTVSATSPNKCKRPMNAFMLFAKKYRVEYTQMYPGKDNRAISVILGDRWKKMKNEERRMYTLEAKALAEEQKRLNPDCWKRKRTNSGSQQH
In the case of B4, the binding result was “binds”.

B5: YTH domain family protein 1 (protein, UniProt P59326 1-559)
chain: MSATSVDPQRTKGQDNKVQNGSLHQKDAVHDNDFEPYLSGQSNPSNSYPSMSDPYLSSYYPPSIGFPYSLSEAPWSTAGDPPIPYLTTYGQLSNGDHHFMHDAVFGQPGGLGNNIYQHRFNFFPENPAFSAWGTSGSQGQQTQSSAYGSSYTYPPSSLGGTVVDGQTGFHSDSLNKAPGMNSLEQGMVGLKIGDVTTSAVKTVGSVVNSVALTGVLSGNGGTNVNMPVSKPTSWAAIASKPAKPQPKMKTKSGPIVGGALPPPPIKHNMDIGTWDNKGPAPKASAPQQTPSPQAAPQPQQVAQPLPVQPPPLVQPQYQSPQQPLQPRWVAPRNRNAAFGQSGGANSDSNSVGNAQPTSAPSVESHPVLEKLKAAHSYNPKEFDWNLKSGRVFIIKSYSEDDIHRSIKYSIWCSTEHGNKRLDGAFRSMSSKGPVYLLFSVNGSGHFCGVAEMKSPVDYGTSAGVWSQDKWKGKFDVKWIFVKDVPNNQLRHIRLENNDNKPVTNSRDTQEVPLEKAKQVLKIIASYKHTTSIFDDFSHYEKRQEEEEVVRKERQNRNKQ
As for B5, the binding result was “binds”.

B6: Sap130 (protein, UniProt Q8BIH0 1-1057)
chain: MSSQQFPRLGTPSPGLSQPPSQIASSGSAGLINQVATVNDEAGRDADVGTREHVGPSSSLPPREEKQEPVVVRPYPQVQMLPAHHAVASATPVAVTAPPAHLTPAVPLSFSEGLMKPPPKPTMPSRPIAPAPPSTMSLPPKVPGQVTVTMESSIPQASAIPVATISGQQGHPSNLHHIMTTNVQMSIIRSNAPGPPLHIGASHLPRGAAAAAVMSSSKVTTVLRPTSQLPNAATAQPAVQHLIHQPIQSRPPVTTSSTIPPAVVATVSATRAQSPVITTTAAHAADSTLSRPTLSIQHPPSAAISIQRPAQSRDVTTRITLPSHPALGTPKQQLHTMAQKTIFSTGTPVAAATVAPILATNTLPSTTTAGSVSHTQAPTSTIVTMTMPSHSSHATAVTTSNIPVAKVVPQQITHTSPRIQPDYPPERSSLIPISGHRASPNPVAMETRNDNRPSVPVQFQYFLPTYPPSAYPLAAHTYTPITSSVSTIRQYPVSAQAPNSTITAQTGVGVASTVHLNPMQLMTVDASHARHIQGIQPAPISTQGIQPAPIGTSGIQPAPIGTPGIHSAAPINTQGLQPAAMANQQPQPEGKTSAVVLADGATIVANPISNPFSAAPAATTVVQTHSQSASTNTPAQGSSPRPSILRKKPATDGMAVRKTLLPPQPPDVATPRVESSMRSASGSPRPAGAKPKSEVHVSIATPVTVSLETISNQNAEQPTVAVPPTAQQPPPTIPSMIAAASPPSQPAIALSTIPGAVPVTPPITTIAATPTLSAPVGGTPSTVLGPPVPEIKVKEEAEPVDITRPVSTVPPLATNTVSPSLALLASNLSMPPSDLPPGASPRKKPRKQQHVISTEEGDMMETNSTDDEKSAAKSLLVKAEKRKSPPKEYIDEEGVRYVPVRPRPPITLLRHYRNPWKAAYHHFQRYSDVRVKEEKKAMLQEIANQKGVSCRAQGWKVHLCAAQLLQLTNLEHDVYERLTNLQEGIIPKKKAATDDDLHRINELIQGNMQRCKLVMDQISEARDSMLKVLDHKDRVLKLLNKNGTVKKVSKLKRKEKV
B6: the binding result is reported as “binds”.

B7: Ing1 (protein, UniProt Q9QXV3 1-279)
chain: MLSPANGEQIHLVNYVEDYLDSIESLPFDLQRNVSLMREIDAKYQEILKELDDYYEKFKRETDGTQKRRVLHCIQRALIRSQELGDEKIQIVSQMVELVENRSRQVDSHVELFEAHQDISDGTGGSGKAGQDKSKSEAITQADKPNNKRSRRQRNNENRENASNNHDHDDITSGTPKEKKAKTSKKKKRSKAKAEREASPADLPIDPNEPTYCLCNQVSYGEMIGCDNDECPIEWFHFSCVGLNHKPKGKWYCPKCRGESEKTMDKALEKSKKERAYNR
In the case of B7, the binding result is reported as “binds”.
